Values joined by “and” are separate entries in the source; they are usually repeats but may differ in a detail not shown here. Equal entries are not always repeated. This is one part of the list. This data set is noisy: repeats of one test often differ as much as different tests do.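 HEK293T cells were given each compound shortly before transfection with a reporter in which red mCherry is followed by the SARS-CoV-2 frameshift element and then GFP in the −1 frame, so GFP appears only after frameshifting.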
What follows are compounds tested on HEK293T (assay: percent viability (nuclei count) relative to control; higher = more viable cells). Conditions: 10 µM; 24 h.

Question: With CCc1ccc(CCOc2ccc(CC3SC(=O)NC3=O)cc2)nc1 (configuration not stated) [pioglitazone] as the compound, how does the percent viability read?
Answer: Its percent viability is 237% and 326%.

Question: CN(Cc1cc(Br)cc(Br)c1N)C1CCCCC1 [bromhexine] was tested. Which percent viability did it give?
Answer: Its percent viability is 286% and 172%.

Question: For CC(C)c1nnc(NS(=O)(=O)c2ccc(N)cc2)s1 [glyprothiazol], which percent viability is on record?
Answer: The percent viability was 106%.

Question: With C[C@]12C=CC(=O)C=C1CC[C@@H]1[C@@H]2[C@@H](O)C[C@@]2(C)[C@H]1CC[C@]2(O)C(=O)COC(=O)CCC(=O)O as the compound, how does the percent viability read?
Answer: The percent viability was 309%.

Question: With CC1=CC(=O)NS(=O)(=O)O1 as the compound, how does the percent viability read?
Answer: The percent viability was 123%.

Question: With Nc1ccc(S(=O)(=O)Nc2ccnn2-c2ccccc2)cc1 [sulfaphenazole] as the compound, how does the percent viability read?
Answer: Its percent viability is 271%.

Question: Which percent viability does the source give for Oc1nc(O)c2cn[nH]c2n1 [oxipurinol] here?
Answer: Its percent viability is 119%.

Question: With CC(=O)OCC(=O)[C@@]1(O)CC[C@H]2[C@@H]3CCC4=CC(=O)CC[C@]4(C)C3=CC[C@@]21C [anecortave] as the compound, how does the percent viability read?
Answer: Its percent viability is 336%.

Question: With CC(N)CCCC(C)(C)O (configuration not stated) as the compound, how does the percent viability read?
Answer: Its percent viability is 396%.

Question: CC(C)CC(=O)N[C@H](C(=O)N[C@H](C(=O)N[C@@H](CC(C)C)[C@@H](O)CC(=O)N[C@@H](C)C(=O)N[C@@H](CC(C)C)[C@@H](O)CC(=O)O)C(C)C)C(C)C [pepstatin] was tested. Which percent viability did it give?
Answer: The percent viability was 129%.

Question: With CCCNC(C)C(=O)Nc1c(C)csc1C(=O)OC (configuration not stated) [articaine] as the compound, how does the percent viability read?
Answer: Its percent viability is 56.6%.

Question: How did the percent viability turn out when C=C1/C(=C\C=C2/CCC[C@]3(C)[C@@H]([C@H](C)/C=C/[C@H](C)C(C)C)CC[C@@H]23)C[C@@H](O)C[C@@H]1O [doxercalciferol] was run?
Answer: The percent viability was 175%.

Question: CN(C)c1cc(NC(=O)CNC(C)(C)C)c(O)c2c1C[C@H]1C[C@H]3[C@H](N(C)C)C(=O)C(C(N)=O)=C(O)[C@@]3(O)C(=O)C1=C2O was tested. Which percent viability did it give?
Answer: Its percent viability is 169%.

Question: With CC(C(=O)O)c1cccc(Oc2ccccc2)c1 (configuration not stated) [fenoprofen] as the compound, how does the percent viability read?
Answer: Its percent viability is 162% and 229%.

Question: With O=C(O)C1=C(CSc2nnnn2CS(=O)(=O)O)CS[C@@H]2[C@H](NC(=O)[C@H](O)c3ccccc3)C(=O)N12 as the compound, how does the percent viability read?
Answer: Its percent viability is 266%.

Question: Which percent viability does the source give for CC(=O)N[C@@H](CC(=O)N[C@@H](CCC(=O)O)C(=O)O)C(=O)O [spaglumic acid] here?
Answer: Its percent viability is 234%.

Question: How did the percent viability turn out when CC[C@H](C)C[C@H](C)CCCCCCCCC(=O)N[C@H]1C[C@@H](O)[C@@H](NCCN)NC(=O)[C@@H]2[C@@H](O)CCN2C(=O)[C@H]([C@H](O)CCN)NC(=O)[C@H]([C@H](O)[C@@H](O)c2ccc(O)cc2)NC(=O)[C@@H]2C[C@@H](O)CN2C(=O)[C@H]([C@@H](C)O)NC1=O [Cancidas] was run?
Answer: Its percent viability is 189%.

Question: With CN(C)C(=O)Cn1cc(-c2ccc(-c3cncc4ccccc34)cc2)cn1 as the compound, how does the percent viability read?
Answer: Its percent viability is 533%.

Question: For CN1C(CCl)Nc2cc(Cl)c(S(N)(=O)=O)cc2S1(=O)=O (configuration not stated) [methyclothiazide], which percent viability is on record?
Answer: Its percent viability is 152%.

Question: How did the percent viability turn out when COc1ccc(/C=N/NC(=O)c2ccncc2)cc1OC [verazide] was run?
Answer: The percent viability was 127%.

Question: OCCOCCN1CCN(C2=Nc3ccccc3Sc3ccccc32)CC1 [quetiapine] was tested. Which percent viability did it give?
Answer: Its percent viability is 405% and 241%.

Question: Which percent viability does the source give for CN(C)c1nc(N(C)C)nc(N(C)C)n1 [altretamine] here?
Answer: The percent viability was 341% and 202%.

Question: With CCC(=O)OCC(=O)[C@@]1(OC(=O)CC)[C@H](C)C[C@H]2[C@H]3[C@H]([C@@H](O)C[C@@]21C)[C@@]1(C)C=CC(=O)C=C1C[C@H]3Cl as the compound, how does the percent viability read?
Answer: Its percent viability is 306%.

Question: For CCC[C@@H]1C[C@@H](C(=O)N[C@@H]([C@H]2O[C@H](SC)[C@H](O)[C@@H](O)[C@H]2O)[C@H](C)Cl)N(C)C1 [Cleocin], which percent viability is on record?
Answer: The percent viability was 45.8% and 51.4%.

Question: Which percent viability does the source give for O=C1c2c(O)cccc2C(C2OC(CO)C(O)C(O)C2O)c2cc(CO)cc(O)c21 (configuration not stated) here?
Answer: The percent viability was 317%.

Question: For OCCN(CCO)c1nc(N2CCCCC2)c2nc(N(CCO)CCO)nc(N3CCCCC3)c2n1 [dipyridamole], which percent viability is on record?
Answer: Its percent viability is 218% and 132%.

Question: Cc1nccn1CC1CCc2c(c3ccccc3n2C)C1=O (configuration not stated) was tested. Which percent viability did it give?
Answer: Its percent viability is 168%.
